Here are results for one compound from publication PMC9298630 (Journal of Food and Drug Analysis, 2018).

For data set [1] the following is noted: humans; cited from earlier work.
For data set [2] the following is noted: rats, cited from earlier work.
For data set [3] the following is noted: Sprague-Dawley, rat, in vivo, po, 3 mg/kg, mean ± SEM; for AUC(0-t): AUC0–t; for AUC(0-t) / AUC(0-inf) / Cmax / Tmax / Vd/F: rats; for AUC(0-inf): AUC0–∞; for half-life: t1/2, rats.
Setting [4] is: nifedipine suspended in water (10 mg/ml), oral dose 10 mg/kg.
Setting [5] is: oral nifedipine 3 mg/kg 1 h after SY 0.95 g/kg.
Setting [6] is: oral nifedipine 3 mg/kg 1 h after SY 1.9 g/kg.
Setting [7] is: oral nifedipine 3 mg/kg, control.

Read-outs that look alike come from different tables or passages of the source.

For `COC(=O)C1=C(C)NC(C)=C(C(=O)OC)C1c1ccccc1[N+](=O)[O-]` [Nifedipine, nifedipine, reference compound], in data set [1], the absolute bioavailability is given as 40–50%. The Tmax (usually the time from dosing to the highest level) in data set [2] (nifedipine prepared using PEG) was 15 to 28.2 min. In data set [2] (setting [4]), the Tmax is 42.6 min and the “half-life (terminal)” value is 582 min. Further, in data set [3] (setting [5]), the exposure AUC(0-t) – broadly, the area under the concentration-time curve up to a stated or last time point – is 5200 ± 360 ng·h/mL; the AUC(0-inf) – broadly, the area under the concentration-time curve extrapolated to infinity – stood at 5500 ± 340 ng·h/mL; the peak concentration (Cmax) – broadly, the highest concentration seen after dosing – came out at 3500 ± 340 ng/mL; the Tmax came out at 15 min. Besides, in data set [3] (setting [5]), the Vd/F (usually the apparent distribution volume after extravascular dosing) worked out at 1.32 ± 0.19 L/kg and the half-life – broadly, the time needed for the level to fall by half in the phase considered – was 102 ± 12 min. Moreover, in data set [3] (setting [6]), the AUC(0-t) came to 5300 ± 500 ng·h/mL, the total exposure AUC(0-inf) was 7100 ± 700 ng·h/mL, the concentration peaked (Cmax) at 2480 ± 110 ng/mL and the Tmax was 19.8 ± 3 min. In data set [3] (setting [6]), this compound had a Vd/F of 1.73 ± 0.26 L/kg and a half-life of 174 ± 30 min. For the same compound, in data set [3] (setting [7]), the area under the curve AUC(0-t) amounted to 4300 ± 300 ng·h/mL, the area under the curve AUC(0-inf) was found to be 4600 ± 300 ng·h/mL, the Cmax is 2300 ± 190 ng/mL and the Tmax amounted to 25.2 ± 3 min. The same compound had a half-life in data set [3] (setting [7]) of 72 ± 12 min.
